Binding data for one substance are collected here from PMC4546488.

Amino acid sequences for entries named in this document (tags omitted).
UniProt P04198: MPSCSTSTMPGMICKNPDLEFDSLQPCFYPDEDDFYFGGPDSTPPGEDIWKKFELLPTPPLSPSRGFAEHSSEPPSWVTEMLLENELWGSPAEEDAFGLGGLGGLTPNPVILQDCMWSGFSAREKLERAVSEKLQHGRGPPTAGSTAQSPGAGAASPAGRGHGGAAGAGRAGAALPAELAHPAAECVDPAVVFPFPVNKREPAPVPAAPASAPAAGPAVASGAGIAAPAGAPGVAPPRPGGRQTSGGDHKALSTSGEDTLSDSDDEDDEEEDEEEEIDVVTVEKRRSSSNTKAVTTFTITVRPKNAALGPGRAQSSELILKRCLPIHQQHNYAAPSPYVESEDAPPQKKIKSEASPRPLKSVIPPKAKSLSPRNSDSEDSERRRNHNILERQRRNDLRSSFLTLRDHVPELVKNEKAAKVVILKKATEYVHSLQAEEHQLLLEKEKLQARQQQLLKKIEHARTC
UniProt P61244: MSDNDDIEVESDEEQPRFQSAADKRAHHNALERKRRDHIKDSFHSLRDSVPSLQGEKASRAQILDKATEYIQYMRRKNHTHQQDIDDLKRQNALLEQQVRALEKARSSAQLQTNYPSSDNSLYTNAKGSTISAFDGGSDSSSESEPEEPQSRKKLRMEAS

No constants are given. Whether binding was seen depends on the method and setting. In cells and extracts the contact can be indirect. Some results given as binding are weak or reduced against the parent protein; the word gives no strength.

The assay addresses MYCN (human (endogenous in Tet-21/N)) (UniProt P04198). The experiment in a line: co-IP; lysate of untreated Tet-21/N cells (MYCN-ON), 1 mg extract, immunoprecipitated with anti-MYCN antibody (sc-53993), overnight at 4°C, washed in buffer F, blotted for MYCN, LSD1 and MAX.

With MAX (from UniProt P61244 1-160), the binding entry is listed as “binds”.
